Results published in publication PMC6858710.
These are yes or no findings as the source states them, for the method shown. Binding seen in cells or lysates may run through a third protein. Binding can be weak; no strength is given.

Sequences of proteins named here, by UniProt entry; tags and fusion partners are left off. A change or cut given only in a name is not applied to a line headed by its entry.
UniProt P11309: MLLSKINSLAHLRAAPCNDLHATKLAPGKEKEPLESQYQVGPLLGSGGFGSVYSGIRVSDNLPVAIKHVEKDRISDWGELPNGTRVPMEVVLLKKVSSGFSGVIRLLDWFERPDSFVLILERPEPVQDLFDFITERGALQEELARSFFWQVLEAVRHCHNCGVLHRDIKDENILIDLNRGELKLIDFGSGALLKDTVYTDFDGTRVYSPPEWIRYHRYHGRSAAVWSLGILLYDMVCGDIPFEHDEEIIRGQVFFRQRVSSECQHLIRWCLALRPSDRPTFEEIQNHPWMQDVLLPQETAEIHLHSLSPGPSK
UniProt O95644: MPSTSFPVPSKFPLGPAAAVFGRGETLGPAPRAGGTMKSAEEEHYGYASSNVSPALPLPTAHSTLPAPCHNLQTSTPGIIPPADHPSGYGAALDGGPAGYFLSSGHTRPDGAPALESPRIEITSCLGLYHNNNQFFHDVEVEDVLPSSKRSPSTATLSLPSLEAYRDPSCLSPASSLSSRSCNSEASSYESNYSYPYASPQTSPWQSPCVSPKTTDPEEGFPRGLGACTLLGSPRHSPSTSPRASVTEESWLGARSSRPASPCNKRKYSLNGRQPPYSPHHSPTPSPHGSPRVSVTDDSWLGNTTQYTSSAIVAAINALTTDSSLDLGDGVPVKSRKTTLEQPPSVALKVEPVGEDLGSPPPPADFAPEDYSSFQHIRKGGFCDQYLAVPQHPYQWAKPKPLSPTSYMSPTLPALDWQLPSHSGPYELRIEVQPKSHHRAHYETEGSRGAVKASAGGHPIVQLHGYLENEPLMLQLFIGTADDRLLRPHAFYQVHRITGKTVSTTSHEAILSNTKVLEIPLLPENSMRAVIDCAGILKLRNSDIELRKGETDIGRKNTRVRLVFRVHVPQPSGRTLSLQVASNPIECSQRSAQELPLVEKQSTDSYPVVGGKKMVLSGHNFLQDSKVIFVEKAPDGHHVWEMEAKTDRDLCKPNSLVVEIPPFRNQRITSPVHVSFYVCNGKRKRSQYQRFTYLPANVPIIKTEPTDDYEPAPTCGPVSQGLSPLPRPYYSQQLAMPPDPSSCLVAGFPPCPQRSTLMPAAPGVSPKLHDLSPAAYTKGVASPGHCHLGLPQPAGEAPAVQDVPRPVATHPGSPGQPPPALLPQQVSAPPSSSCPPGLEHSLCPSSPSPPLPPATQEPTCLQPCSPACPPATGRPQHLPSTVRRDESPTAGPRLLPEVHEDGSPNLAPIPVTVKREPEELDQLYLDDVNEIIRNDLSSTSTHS

Molecular target: RFP-tagged PIM1 (human) (UniProt P11309)
Assay: FRET or BRET; FLIM: GFP lifetime measured in fixed (4% PFA) PC-3 cells transiently co-transfected with GFP-NFATC1 and RFP-PIM1; cells treated overnight with DMSO or 10 uM DHPCC-9; the lowest negative control (GFP + RFP) value was set as the limit for physical interaction

| Substance | binding |
| --- | --- |
| GFP-tagged multi mutant (MM) NFATC1 (from UniProt O95644) | binds |
| GFP-tagged wild-type NFATC1 (from UniProt O95644-2) | binds |
